Results from article doi:10.1101/758722.
These are yes or no findings as the source states them, for the method shown. For some of these results: In cells and extracts the contact can be indirect. Some entries that bind do so weakly or less than the wild type. For some of these results: Sequences can lack the tags named with a protein. Values belong to the binder of their own block, whether it stands above or below them.

The chains behind the UniProt entries cited, without tags or fusion partners.
UniProt P27694: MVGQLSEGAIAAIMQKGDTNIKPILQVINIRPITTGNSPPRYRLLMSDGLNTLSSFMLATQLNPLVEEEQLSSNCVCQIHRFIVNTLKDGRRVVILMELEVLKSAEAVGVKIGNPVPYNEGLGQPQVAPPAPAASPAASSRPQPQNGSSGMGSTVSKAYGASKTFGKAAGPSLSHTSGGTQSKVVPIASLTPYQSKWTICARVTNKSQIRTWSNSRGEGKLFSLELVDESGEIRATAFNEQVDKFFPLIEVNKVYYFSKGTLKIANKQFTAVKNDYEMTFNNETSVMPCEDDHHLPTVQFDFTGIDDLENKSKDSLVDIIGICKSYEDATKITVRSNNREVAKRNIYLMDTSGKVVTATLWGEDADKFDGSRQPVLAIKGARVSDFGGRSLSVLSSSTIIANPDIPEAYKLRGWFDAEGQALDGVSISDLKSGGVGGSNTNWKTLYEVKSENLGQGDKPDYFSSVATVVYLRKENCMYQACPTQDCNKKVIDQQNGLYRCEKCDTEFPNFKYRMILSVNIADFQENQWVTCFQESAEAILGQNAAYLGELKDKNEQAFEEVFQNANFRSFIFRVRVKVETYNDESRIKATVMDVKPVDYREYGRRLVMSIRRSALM
UniProt P15927: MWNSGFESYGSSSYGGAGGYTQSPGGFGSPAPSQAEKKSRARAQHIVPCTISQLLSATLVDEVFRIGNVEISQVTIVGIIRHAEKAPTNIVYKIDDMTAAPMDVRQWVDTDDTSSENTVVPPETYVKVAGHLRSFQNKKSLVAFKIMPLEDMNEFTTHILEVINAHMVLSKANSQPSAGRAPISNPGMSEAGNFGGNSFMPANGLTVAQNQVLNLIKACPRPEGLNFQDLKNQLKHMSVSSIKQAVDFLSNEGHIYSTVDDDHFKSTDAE

How the values were obtained:
RPA1 = RPA1 (UniProt P27694); assay: co-IP
RPA2 = RPA2 (UniProt P15927); assay: co-IP
MBP-tagged RPA1 = MBP-tagged RPA1 (UniProt P27694); assay: pull-down
MBP-tagged RPA2 = MBP-tagged RPA2 (UniProt P15927); assay: pull-down

binding (RPA1): binds
binding (RPA2): binds
B1: C17orf53 (protein, UniProt Q8N3J3 1-647)
chain: MACSLQKLFAVEEEFEDEDFLSAVEDAENRFTGSLPVNAGRLRPVSSRPQETVQAQSSRLLLLHPTAPSEALGLPDLDLCLPASSTPSADSRPSCIGAAPLRPVSTSSSWIGNQRRVTVTEVLRETARPQSSALHPLLTFESQQQQVGGFEGPEQDEFDKVLASMELEEPGMELECGVSSEAIPILPAQQREGSVLAKKARVVDLSGSCQKGPVPAIHKAGIMSAQDESLDPVIQCRTPRPPLRPGAVGHLPVPTALTVPTQQLHWEVCPQRSPVQALQPLQAARGTIQSSPQNRFPCQPFQSPSSWLSGKAHLPRPRTPNSSCSTPSRTSSGLFPRIPLQPQAPVSSIGSPVGTPKGPQGALQTPIVTNHLVQLVTAASRTPQQPTHPSTRAKTRRFPGPAGILPHQQSGRSLEDIMVSAPQTPTHGALAKFQTEIVASSQASVEEDFGRGPWLTMKSTLGLDERDPSCFLCTYSIVMVLRKQAALKQLPRNKVPNMAVMIKSLTRSTMDASVVFKDPTGEMQGTVHRLLLETCQNELKPGSVLLLKQIGVFSPSLRNHYLNVTPNNLVHIYSPDSGDGSFLKPSQPFPKDSGSFQHDVAAKPEEGFRTAQNLEAEASPEEELPEADDLDGLLSELPEDFFCGTSS

binding (MBP-tagged RPA1): binds
binding (MBP-tagged RPA2): binds
B2: GST-C17orf53 (protein, UniProt Q8N3J3 1-647)
chain: B1 chain
